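Enzyme assay of tryptophanyl-tRNA synthetase; the read-out is not stated. Target: Tryptophan-tRNA ligase, Mycobacterium tuberculosis (UniProt P9WFT3). Concentration: 10 µM. Higher most likely means stronger inhibition; the record gives no direction and few retests gave an IC50. About 65,000 compounds were tested under these conditions; 0.098% (about 64) showed 50% or more at least once.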

By UniProt entry, the sequences of proteins in these tests, tags left out.
UniProt P9WFT3, whole entry: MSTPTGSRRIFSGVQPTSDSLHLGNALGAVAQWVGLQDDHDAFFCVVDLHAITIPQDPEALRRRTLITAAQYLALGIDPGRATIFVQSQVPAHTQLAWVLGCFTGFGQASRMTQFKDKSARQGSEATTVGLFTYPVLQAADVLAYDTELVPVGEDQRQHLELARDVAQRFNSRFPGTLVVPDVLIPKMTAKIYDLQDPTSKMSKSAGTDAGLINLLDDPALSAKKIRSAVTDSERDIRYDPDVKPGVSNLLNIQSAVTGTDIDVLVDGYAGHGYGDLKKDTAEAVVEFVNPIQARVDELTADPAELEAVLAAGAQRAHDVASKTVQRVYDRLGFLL

Values are the deposited “Percent Effect”, in %.
How 0% and 100% were set is not recorded. Most values in the screen are low, and negative values occur.
The compounds are a random part of those screened.

{"structure": "NC(=O)CN1CCCN(C(=O)Cc2ccc3c(c2)OCO3)CC1", "percent effect": -3.463}
{"structure": "Cn1ccnc1CN1CCC(F)(F)C2(CCN(c3cnccn3)C2)C1", "stereo": "centres unmarked", "percent effect": 4.411}
{"structure": "CC(=O)N[C@@H]1Cc2ccccc2[C@H]1Nc1nnc(C2CC2)o1", "percent effect": 0.6261}
{"structure": "CC(Oc1cccc(Cl)c1)C(=O)Nc1cnn(CC(=O)NC2CC2)c1", "stereo": "centres unmarked", "percent effect": 3.038}
{"structure": "Cc1cnc(-c2nc(C3CCN(Cc4ccccc4Cl)CC3)no2)cn1", "percent effect": -5.859}
{"structure": "CC(CNC(=O)c1ccc(Cl)cc1F)N1CCN(C)CC1", "stereo": "centres unmarked", "percent effect": 37.19}
{"structure": "Cc1cc(C)c(CN2CCCC23Cc2ccccc2CNC3=O)c(C)c1", "stereo": "centres unmarked", "percent effect": -6.655}
{"structure": "CN(C)C[C@H]1C[C@@H](CO)CN(C(=O)CCc2nc(Cl)n[nH]2)C1", "percent effect": 11.85}
{"structure": "Cc1nc(-c2cnn(C)c2)sc1C(=O)NCc1cccc(CN(C)C)c1", "percent effect": 2.801}
{"structure": "CCSc1ccc(NC(=O)NC(C)c2ccncc2)cn1", "stereo": "centres unmarked", "percent effect": 2.993}
{"structure": "CCN(CC)c1ccc(NC(=O)NC(C)Cn2cccn2)cn1", "stereo": "centres unmarked", "percent effect": 0.6463}
{"structure": "CCC(C)c1noc(C2CCN(C(=O)c3cccnc3)CC2)n1", "stereo": "centres unmarked", "percent effect": -2.9}
{"structure": "c1ncn(CC2CCCN(Cc3nnc(C4CC4)o3)C2)n1", "stereo": "centres unmarked", "percent effect": 9.225}
{"structure": "CC(C)NC(=O)NC[C@H]1OC[C@@H](NCc2ccccc2O)[C@@H]1O", "percent effect": 1.58}
{"structure": "Cc1ccc(C(=O)N(C)C)cc1NC(=O)COCC1CC1", "percent effect": 0.9909}
{"structure": "O=C(NCC1(O)CCOC1)c1ccccc1Cl", "stereo": "centres unmarked", "percent effect": -6.708}
{"structure": "CCn1c(CNC(=O)c2ccc(N(C)C)nc2)nc2ccccc21", "percent effect": -7.627}
{"structure": "O=C(COC1CCCCC1)N1CCN(C(=O)Cc2ccccn2)CC1", "percent effect": 4.046}
{"structure": "CC1CCCN(c2ccccc2OCC(=O)N2CCOCC2)C1", "stereo": "centres unmarked", "percent effect": 9.875}
{"structure": "CC(C(=O)NC1(C#N)CCCCC1)N1CCc2c(ncn2C2CC2)C1", "stereo": "centres unmarked", "percent effect": -2.714}
{"structure": "CCC(CC)c1cc(C(=O)N2CCCC(n3cncn3)C2)on1", "stereo": "centres unmarked", "percent effect": 0.5687}
{"structure": "CC(=O)N1CCC(Oc2cccc(C#N)c2)CC1", "percent effect": -2.933}
{"structure": "O=C(N1CCOCC1)N1CCc2ncnc(Oc3cccnc3)c2CC1", "percent effect": -5.297}
{"structure": "CCc1nsc(N2CCN(C(=O)COc3ccccc3)CC2)n1", "percent effect": -3.374}
{"structure": "c1ccc(CN2C[C@@H]3COC[C@]3(COCc3ccncc3)C2)nc1", "percent effect": -0.07639}
{"structure": "CCC1(O)CCCN(c2ncnc3c2c(C)nn3C)C1", "stereo": "centres unmarked", "percent effect": -0.8051}
{"structure": "Cc1n[nH]c(C)c1CCN(C)C(=O)c1ccc(CCC(C)(C)O)cc1", "percent effect": 2.217}
{"structure": "CCc1cc(NCc2ccccc2CN2CCCC2)n2ncnc2n1", "percent effect": 13.24}
{"structure": "Cc1nn(CCC#N)c(C)c1CCC(=O)N(C(C)C)C1CC1", "percent effect": 2.717}
{"structure": "CNC(=O)C1(N2CCC[C@H]2C(=O)NC2CCOCC2)CCOCC1", "percent effect": 0.6777}
{"structure": "Cc1cc(C)c(CNC(=O)NCCc2cccnc2)c(=O)[nH]1", "percent effect": 7.682}

Measurements from “University of Dundee, Small-Polar-MMV Screening Library” (2021), ChEMBL document CHEMBL3988442.